Data as given in PMC10920805.
No constants are given. Whether binding was seen depends on the method and setting. Binding seen in cells or lysates may run through a third protein. These calls come from enrichment with a bait or labelling near it, and not all partners need be listed.

Target: T1, RIOK3 (bait of the mass spectrometry analysis) (UniProt O14730)
T1 sequence: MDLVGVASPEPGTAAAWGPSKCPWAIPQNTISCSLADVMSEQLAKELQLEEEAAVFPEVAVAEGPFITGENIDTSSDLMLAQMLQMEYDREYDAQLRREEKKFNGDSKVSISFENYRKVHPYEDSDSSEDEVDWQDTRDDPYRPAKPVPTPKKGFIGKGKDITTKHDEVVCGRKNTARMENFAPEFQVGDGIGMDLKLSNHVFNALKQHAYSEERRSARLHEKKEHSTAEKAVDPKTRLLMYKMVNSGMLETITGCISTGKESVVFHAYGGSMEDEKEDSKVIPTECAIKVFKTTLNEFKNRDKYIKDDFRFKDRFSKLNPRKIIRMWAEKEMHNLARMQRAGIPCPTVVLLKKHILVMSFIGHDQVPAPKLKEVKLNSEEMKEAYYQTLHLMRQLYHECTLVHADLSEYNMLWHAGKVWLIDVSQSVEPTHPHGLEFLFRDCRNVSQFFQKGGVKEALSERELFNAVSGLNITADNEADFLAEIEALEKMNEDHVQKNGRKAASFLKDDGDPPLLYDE
Assay: affinity purification with mass spectrometry; mass spectrometry analysis to identify binding partners of RIOK3; bait, cells and conditions not told

**Q.** With “heat shock protein 90α (from UniProt P07900 1-732)” as the substance, how does the binding read?
**A.** The binding was “binds”.
